Results from patent US20070248536A1.
No constants are given. Whether binding was seen depends on the method and setting.

Sequences of proteins named here, by UniProt entry; tags and fusion partners are left off. Residues count along the entry.
UniProt P02769, residues 25-607: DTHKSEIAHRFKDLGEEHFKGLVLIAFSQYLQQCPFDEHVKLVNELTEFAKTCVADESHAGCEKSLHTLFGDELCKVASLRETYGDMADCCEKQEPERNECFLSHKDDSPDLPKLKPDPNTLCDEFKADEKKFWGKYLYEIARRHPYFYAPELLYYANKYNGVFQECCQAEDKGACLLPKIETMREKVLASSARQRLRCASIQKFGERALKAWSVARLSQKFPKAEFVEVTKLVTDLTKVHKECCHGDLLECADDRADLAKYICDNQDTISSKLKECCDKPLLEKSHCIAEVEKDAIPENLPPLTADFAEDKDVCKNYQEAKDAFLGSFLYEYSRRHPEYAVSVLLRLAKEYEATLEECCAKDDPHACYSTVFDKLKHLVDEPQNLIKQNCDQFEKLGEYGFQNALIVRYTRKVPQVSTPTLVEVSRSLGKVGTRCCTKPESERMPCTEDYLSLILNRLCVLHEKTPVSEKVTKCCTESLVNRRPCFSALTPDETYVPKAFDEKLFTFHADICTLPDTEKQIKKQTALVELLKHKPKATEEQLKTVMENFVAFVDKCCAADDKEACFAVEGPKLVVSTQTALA

Target: BSA (bovine) (UniProt P02769)
Experiment: condition: 1 ml of 5 mg/ml BSA mixed with 0.5 ml proNGF applied (not printed on the sheet); SDS PAGE of fractions of the SPC7-E9 affinity column, BSA/proNGF mixture applied

B1: Affilin variation SPC7-E9 (designed binder)
chain: MGFICFLEDRAFQGRSYACDTDCPNLQPYFSRCNSISVLSGCWMIYERPNYQGHQYFLRRGEYPDYQQWMGLSDSIRSCCLIPPHSGAYRMKIYDRDELRGQMSELTDDCLSVQDRFHLTEIHSLNVLEGSWILYEMPNYRGRQYLLRPGEYRRFLDWGAPNAKVGSLRRVMDLYLEHHHHHH
binding: no binding
